This is one part of the list. These are raw signals, not scaled to a control.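 In the initial screen, polymyxin B was used at a concentration that permeabilizes Salmonella's outer membrane but not its inner membrane. Maximum growth was set by DMSO wells with or without polymyxin B. Since plates varied, data were ranked per plate, and compounds giving the lowest OD600 advanced as hits.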
System: Salmonella enterica serovar Typhimurium SL1344
Assay: bacterial growth OD600 after 18 h with compound and polymyxin B; higher = more bacterial growth (less inhibition)
Details: 50 µM, Mueller-Hinton broth

SMILES	bacterial growth OD600 (polymyxin B 1 µg/mL)	bacterial growth OD600 (polymyxin B 0.75 µg/mL)
O=C(NC1CCOCC1)c1cc(Cn2cnc3ccccc32)on1	1.05	–
O=C(CCN1Cc2ccccc2OC(c2ccccc2F)C1)NCc1ccc2c(c1)OCO2 (centres undefined)	–	0.527
CCN1CCN(C2(C(=O)NCCc3ccccc3)Cc3ccccc3C2)CC1	–	0.78
C=CCCC(=O)N1CCCC(CCc2cccc(F)c2)C1 (centres undefined)	–	0.282
CN(CC1Cc2ccccc2O1)C(=O)CC1(c2ccc(-c3ccccc3)cc2)CC(=O)N(C)C1=O (centres undefined)	–	0.716
O=C(c1ccc2c(c1)OCO2)C1CCCN(Cc2ccccc2OC(F)F)C1 (centres undefined)	0.876	–
O=C(CC(c1cccc(O)c1)c1cccc(Cl)c1)NCc1cccnc1 (centres undefined)	0.941	–
C=CCS(=O)(=O)N1CCC(C2CCN(c3ncccn3)CC2)C1 (centres undefined)	–	0.835
COc1cc(NC(=O)CCC2CCCN(C(=O)CCc3cccnc3)C2)cc(OC)c1 (centres undefined)	0.961	–

From the supplement of paper PMC12889115
